# Measurements as given in the supplement of paper PMC10338343.
# ± gives the standard deviation. Only a part is listed here, and it is no random draw. Many of these values have a large error.
# Tested on: MIWI (PIWIL1) piRISC loaded with piRNA #2 (30 nt)
# Experiment: pre-steady-state target cleavage rate (min^-1); MIWI and MILI are mouse PIWI proteins and EfPiwi is from a freshwater sponge; tags in brackets are library labels; higher = faster piRNA-guided slicing of the target
# Details: guide: piRNA #2 5'p-UUAGGUAACCCAGUAGAUCCAGAGGAAUUC; auxiliary factor: 500 nM mouse GTSF1
# Outline: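 In Cleave-'n-Seq, a transcribed, DNA-blocked target RNA library (0.1 nM) was combined with 1 nM active affinity-purified piRISC bearing one synthetic guide, with or without 500 nM GTSF1 partner protein. Reactions ran in HEPES–potassium acetate buffer at 33 °C for 0–8 or 0–960 min. Uncleaved targets were sequenced and normalised to depth and to weakly complementary targets, three trials were pooled, and k3 was capped at 0.0001 min^-1. The pre-steady-state cleavage rate was obtained by fitting a burst-and-steady-state model.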
row,Sequence,pre-steady-state target cleavage rate
1,GAAUUCCUCAGGAUCUACUGGGUUACGUAA,0.738 ± 0.062
2,CUUAAGGACUGGAUCUACGGGUUACCUAA,0.000298 ± 0.032
3,CUUAAGGAGUGGAUCUUGUGGGUUACCUAA,0.000121 ± 0.036
4,CUUAAGGAGACCUAGUACUGCGGUUACCUAA,0.00125 ± 0.0061
5,CUUAAGGACUCGAUCUACUGGCUUACCUAA,0.00689 ± 0.0093
6,GAAUUCCUCUGGAUGUACAGGGUUACCUAA,0.413 ± 0.029
7,CUUAAGGAGUGGUUCUACUGGGUAACCUAA,0.00171 ± 0.012
8,CUUAAGGAGACCAUCUACUGGGCUACCUAA,0.00127 ± 0.008
9,CAAUUCCUCUGGAUCUACUUGGGUUACCUAA,0.00419 ± 0.0046
10,CUUAAGGAGACGAUCUUCUGGGUAACCUAA,0.000953 ± 0.0048
11,CUUAAGGAGACCUAGAUGAGUGGUUACCUAA,0.00141 ± 0.0058
12,CUUAUCCUCUCGAUCUACUGGGUUACCAAA,0.542 ± 0.041
13,CUUAAGGAGACCAUCUACCGGGUUACCUAA,0.00104 ± 0.012
14,CUUAAGGAGACCUAGAUGUCCGUUACCUAA,0.000696 ± 0.01
15,CUUAAGGAGAGGAUGUACUGGGUUACCUAA,0.00307 ± 0.0086
16,CUUAAGGAGAGGAUCUCCUGGGUUACCUAA,0.00203 ± 0.0071
17,CUUAAGGAGUGGAUCUAGUGGCUUACCUAA,0.000372 ± 0.027
18,CUUAAGGAGACCUAGUACUGGGGUACCUAA,0.000231 ± 0.019
19,CUAUUCCUCUAGAUCUACUGGGUUACCUAA,0.67 ± 0.042
20,CUUAAGGAGACCAUCUACUGGGAUUCCUAA,0.00104 ± 0.0066
21,CUUAAGGACGGAUCUACUGGGUUACCUAA,0.0543 ± 0.039
22,CAAUUCCUCGGAUCUACUGGGUUACCUAA,0.47 ± 0.087
23,CUUAAGGAGACCAUCUACUGGGUUCACCUAA,0.00131 ± 0.0062
24,CUUAAGGACUGGAUCUUCUGGGUUUCCUAA,0.00181 ± 0.016

# Single values from the entries so far:
# For pre-steady-state target cleavage rate, CUUAAGGAGACCUAGUACUGGGGUACCUAA shows 0.000231 ± 0.019
# For pre-steady-state target cleavage rate, CUUAAGGAGACGAUCUUCUGGGUAACCUAA shows 0.000953 ± 0.0048
# For pre-steady-state target cleavage rate, CUUAAGGAGACCAUCUACCGGGUUACCUAA shows 0.00104 ± 0.012

# Additional entries:

row,Sequence,pre-steady-state target cleavage rate
1,CUUAAGGAGACCAUCUACUGGCUUACCUAA,0.0019 ± 0.0031
2,CUUAAGGAGACCUAGUACUGGGUUAACCUAA,0.00083 ± 0.007
3,CUUAAGGACUCGUUCUACUGGGUUACCUAA,0.00107 ± 0.021
4,CUUAAGGAGACGAUCUACUGGGUUUCGUAA,0.000919 ± 0.008
5,CUUAAGGAGACCAUCUACUCGGGUUACCUAA,0.0014 ± 0.0073
6,CUUAAGGAGAGGAUCAACUGGGUUUCCUAA,0.000509 ± 0.01
7,CUUAACCUCUGGAUCUACUGGGUACCUAA,0.000309 ± 0.017
8,CUUAAGGAGACGAUCUACUGGGGUUACCUAA,0.000635 ± 0.0086
9,CUUAAGGAGACCAUCUACUGGGAUAGCUAA,0.000185 ± 0.024
10,CUUAAGGAGACCUAGUACUCGGGUUACCUAA,0.000705 ± 0.011
11,GAAUUCCUCUCGAUCUACUGGGUUACCAAA,0.564 ± 0.067
12,CUUAAGGAGACGAUCACUGGGUUACCUAA,0.000948 ± 0.0088
13,CUUAAGGAGACCUACUACUGAGGUUACCUAA,0.00184 ± 0.0035
14,GAAUUCCUCUGGAUCUACUCCCUUACCUAA,0.00147 ± 0.0076
15,CUUAAGGAGACCUAGUACUGGGUAACCAAA,0.000197 ± 0.032
16,CUUAAGGAGACCAUCUACUGGGUUUCGUAA,0.000739 ± 0.013
17,CUUAAGGAGACCAUCUACUGGGUCACCUAA,0.000569 ± 0.011
18,CUUAAGGAGACCUACUACUGUGGUUACCUAA,0.000752 ± 0.012
19,CUUAAGGAGACCUAGAUCUGGGAAACCUAA,0.000146 ± 0.044
20,CUUAAGGAGACCUUCUACUGGGUUAACCUAA,0.00244 ± 0.0054
21,CUUAAGGAGACCUAGAUGAGGGUUACGCUAA,0.00035 ± 0.016
22,CUUAAGGAGACCUAGAACAGCGUUACCUAA,0.000466 ± 0.018
23,CUUAAGGAGACCAACUACUGGGAUACCUAA,0.00047 ± 0.011
24,CUUAAGGAGACCUACUACUGGCAAACCUAA,0.000186 ± 0.016

row,Sequence,pre-steady-state target cleavage rate
1,CUUAAGGAGAGGAUCAACUGGGUUACCUUA,0.000513 ± 0.011
2,CUUAAGGAGACCAUCUACUGGGUUAGCUUA,0.000645 ± 0.011
3,CUUAAGGUCUGGAUCUACUGGCGUUACCUAA,0.00112 ± 0.011
4,CUUAAGGAGACCUAGAUGACGGUUACCUAU [g2:g10:cont:t1U],0.00075 ± 0.01
5,CUUAAGGAGACCUAGAAGACGGUUACCUAA,0.000467 ± 0.0092
6,CUUAUCCUCUGGAUCUACUCGGGUUACCUAA,0.00145 ± 0.0073
7,CUUAAGGAGACGAUCUACAGGGUAACCUAA,0.00108 ± 0.0073
8,CUUAAGGAGACCAUCUAGUGGGUUACCAAA,0.00173 ± 0.0056
9,CUUAUCCUCUGGAUCUAGACGGUUACCUAA,0.000289 ± 0.021
10,CUUAACCUCUGGAUCUACUGGUUACCUAA,0.0564 ± 0.012
11,CUUAAGGAGACCUACUACUGGGUUACCUUAA,0.000668 ± 0.0093
12,CUUAAGGAGACCUAGAUGACGUUACCUAA,0.00133 ± 0.004
13,CUUAAGGUCUGGUUCUAGUGGGUUACCUAA,0.0776 ± 0.014
14,CUUAAGGAGACCUACUACUGGGUUGCCUAA,0.00172 ± 0.0067
15,CUUAAGGAGACCAUGUACUGGGUAACCUAA,0.000393 ± 0.021
16,CUUAAGGAGACGAUCUACUGCGUUACCUUA,0.000621 ± 0.011
17,CUUAAGCUCUGGAUCUACUGGCGUUACCUAA,0.00136 ± 0.01
18,CUUAAGGAGACCUUCUACUGGGAUACCUAA,0.00102 ± 0.0066
19,CUUAAGGAGACGAUCUACUGGGUUACCAUA,0.000909 ± 0.0094
20,CUUAAGGAGUGGAUCUUGAGGGUUACCUAA,0.000894 ± 0.0095
21,CUUAAGGACUGGAUCUUCAGGGUUACCUAA,0.00587 ± 0.006
22,CUUAAGGUCUGGAUCUACUCGGAUACCUAA,0.00325 ± 0.011
23,CUUAAGGAGACCUAGAUCUGGGUUACCUAA,0.00103 ± 0.0056
24,CUUAAGGAGACGAUCUACUGCCUUACCUAA,0.000794 ± 0.0056
